{"source": "PubChem BioAssay AID602196 – INSERM | 2012", "purpose": "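Knock-downs that protect lung cancer cells from cisplatin or sensitise them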", "cells": "human A549 lung cancer cells", "reagents": "siRNA pair against human genes", "duration": "48 h transfection before cisplatin; time from cisplatin to read-out not stated", "challenge": "cisplatin at a dose killing half of control-siRNA cells; exact dose and duration not given", "read-out": "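Cisplatin cell death as a shift from the 50% death seen with control siRNA; siRNAs toxic or growth-blocking alone scored 0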", "direction": "two-siRNA summed score (-2 to +2): higher = both siRNAs protect from cisplatin killing; -2 means both sensitise; mean protection from cisplatin (shift in death): higher = protection from cisplatin killing", "call rule": "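Each siRNA scores 0 if harmful alone by LDH or WST-1, otherwise +1 if it reduces and -1 if it increases cisplatin killing; a gene is active when both siRNAs agree (sum +2 or -2)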", "meaning of the calls": "active = both siRNAs shift cisplatin killing the same way; inactive = no consistent shift, or siRNA harmful alone", "note": "The deposit covers about 23,000 reagents; below is a part drawn at random. Of all reagents, 455 (2%) are marked active. 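Active includes both protection and sensitisation; some change values fall well beyond the stated -50 to +50 range.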 Not all columns of the deposit are shown. Not given: the amount of reagent."}
{"gene": "LOC441734", "PubChem SID": "SID131509980", "two-siRNA summed score (-2 to +2)": 0, "mean protection from cisplatin (shift in death) (%)": 2.7, "Outcome": "inactive"}
{"gene": "ALDOB (aldolase, fructose-bisphosphate B)", "PubChem SID": "SID131501422", "two-siRNA summed score (-2 to +2)": -1, "mean protection from cisplatin (shift in death) (%)": -9.9, "Outcome": "inactive"}
{"gene": "LRBA (LPS responsive beige-like anchor protein)", "PubChem SID": "SID131522439", "two-siRNA summed score (-2 to +2)": 1, "mean protection from cisplatin (shift in death) (%)": 18.5, "Outcome": "inactive"}
{"gene": "ADAR (adenosine deaminase RNA specific)", "PubChem SID": "SID131500315", "two-siRNA summed score (-2 to +2)": -2, "mean protection from cisplatin (shift in death) (%)": -26.6, "Outcome": "active"}
{"gene": "PRRT3 (proline rich transmembrane protein 3)", "PubChem SID": "SID131502606", "two-siRNA summed score (-2 to +2)": -1, "mean protection from cisplatin (shift in death) (%)": -0.2, "Outcome": "inactive"}
{"gene": "KIAA1614", "PubChem SID": "SID131513564", "two-siRNA summed score (-2 to +2)": 0, "mean protection from cisplatin (shift in death) (%)": 6.7, "Outcome": "inactive"}
{"gene": "MTAP (methylthioadenosine phosphorylase)", "PubChem SID": "SID131500410", "two-siRNA summed score (-2 to +2)": -2, "mean protection from cisplatin (shift in death) (%)": -12.2, "Outcome": "active"}
{"gene": "PIGW (phosphatidylinositol glycan anchor biosynthesis class W)", "PubChem SID": "SID131502236", "two-siRNA summed score (-2 to +2)": -1, "mean protection from cisplatin (shift in death) (%)": -4.1, "Outcome": "inactive"}
{"gene": "MICALL2 (MICAL like 2)", "PubChem SID": "SID131507300", "two-siRNA summed score (-2 to +2)": 0, "mean protection from cisplatin (shift in death) (%)": -0.3, "Outcome": "inactive"}
{"gene": "LGALS9 (galectin 9)", "PubChem SID": "SID131513288", "two-siRNA summed score (-2 to +2)": 0, "mean protection from cisplatin (shift in death) (%)": 6.4, "Outcome": "inactive"}
{"gene": "SPATA2L (spermatogenesis associated 2 like)", "PubChem SID": "SID131509177", "two-siRNA summed score (-2 to +2)": 0, "mean protection from cisplatin (shift in death) (%)": 1.9, "Outcome": "inactive"}
{"gene": "GAL (galanin and GMAP prepropeptide)", "PubChem SID": "SID131514805", "two-siRNA summed score (-2 to +2)": 0, "mean protection from cisplatin (shift in death) (%)": 8.3, "Outcome": "inactive"}
{"gene": "SLF1 (SMC5/6 complex localization factor 1)", "PubChem SID": "SID131503193", "two-siRNA summed score (-2 to +2)": 0, "mean protection from cisplatin (shift in death) (%)": -12.3, "Outcome": "inactive"}
{"gene": "LOC387830", "PubChem SID": "SID131521689", "two-siRNA summed score (-2 to +2)": 1, "mean protection from cisplatin (shift in death) (%)": 14.5, "Outcome": "inactive"}
{"gene": "NDUFAF2 (NADH:ubiquinone oxidoreductase complex assembly factor 2)", "PubChem SID": "SID131520469", "two-siRNA summed score (-2 to +2)": 1, "mean protection from cisplatin (shift in death) (%)": 10, "Outcome": "inactive"}
{"gene": "PGF (placental growth factor)", "PubChem SID": "SID131510313", "two-siRNA summed score (-2 to +2)": 0, "mean protection from cisplatin (shift in death) (%)": 3.1, "Outcome": "inactive"}
{"gene": "SLC46A2", "PubChem SID": "SID131503411", "two-siRNA summed score (-2 to +2)": 0, "mean protection from cisplatin (shift in death) (%)": -10.3, "Outcome": "inactive"}
{"gene": "ITGA1 (integrin subunit alpha 1)", "PubChem SID": "SID131509040", "two-siRNA summed score (-2 to +2)": 0, "mean protection from cisplatin (shift in death) (%)": 1.8, "Outcome": "inactive"}
{"gene": "LINC02138 (long independently transcribed non-coding RNA 2138)", "PubChem SID": "SID131510357", "two-siRNA summed score (-2 to +2)": 0, "mean protection from cisplatin (shift in death) (%)": 3.2, "Outcome": "inactive"}
{"gene": "L1TD1 (LINE1 type transposase domain containing 1)", "PubChem SID": "SID131513842", "two-siRNA summed score (-2 to +2)": 0, "mean protection from cisplatin (shift in death) (%)": 7.1, "Outcome": "inactive"}
{"gene": "PECR (peroxisomal trans-2-enoyl-CoA reductase)", "PubChem SID": "SID131513259", "two-siRNA summed score (-2 to +2)": 0, "mean protection from cisplatin (shift in death) (%)": 6.4, "Outcome": "inactive"}
{"gene": "DPY30 (dpy-30 histone methyltransferase complex regulatory subunit)", "PubChem SID": "SID131509289", "two-siRNA summed score (-2 to +2)": 0, "mean protection from cisplatin (shift in death) (%)": 2, "Outcome": "inactive"}
{"gene": "TBC1D14 (TBC1 domain family member 14)", "PubChem SID": "SID131509528", "two-siRNA summed score (-2 to +2)": 0, "mean protection from cisplatin (shift in death) (%)": 2.2, "Outcome": "inactive"}

Records above whose target name begins with S or s:
{"gene": "SPATA2L (spermatogenesis associated 2 like)", "PubChem SID": "SID131509177", "two-siRNA summed score (-2 to +2)": 0, "mean protection from cisplatin (shift in death) (%)": 1.9, "Outcome": "inactive"}
{"gene": "SLF1 (SMC5/6 complex localization factor 1)", "PubChem SID": "SID131503193", "two-siRNA summed score (-2 to +2)": 0, "mean protection from cisplatin (shift in death) (%)": -12.3, "Outcome": "inactive"}
{"gene": "SLC46A2", "PubChem SID": "SID131503411", "two-siRNA summed score (-2 to +2)": 0, "mean protection from cisplatin (shift in death) (%)": -10.3, "Outcome": "inactive"}

More records follow:
{"gene": "ARHGAP15 (Rho GTPase activating protein 15)", "PubChem SID": "SID131518049", "two-siRNA summed score (-2 to +2)": 0, "mean protection from cisplatin (shift in death) (%)": 16.2, "Outcome": "inactive"}
{"gene": "ARPP21 (cAMP regulated phosphoprotein 21)", "PubChem SID": "SID131509741", "two-siRNA summed score (-2 to +2)": 0, "mean protection from cisplatin (shift in death) (%)": 2.5, "Outcome": "inactive"}
{"gene": "FCER2 (Fc epsilon receptor II)", "PubChem SID": "SID131509217", "two-siRNA summed score (-2 to +2)": 0, "mean protection from cisplatin (shift in death) (%)": 1.9, "Outcome": "inactive"}
{"gene": "SLC39A13", "PubChem SID": "SID131521399", "two-siRNA summed score (-2 to +2)": 1, "mean protection from cisplatin (shift in death) (%)": 13.3, "Outcome": "inactive"}
{"gene": "TRAPPC2L (trafficking protein particle complex subunit 2L)", "PubChem SID": "SID131506649", "two-siRNA summed score (-2 to +2)": 0, "mean protection from cisplatin (shift in death) (%)": -1.2, "Outcome": "inactive"}
{"gene": "HSPA14 (heat shock protein family A (Hsp70) member 14)", "PubChem SID": "SID131504074", "two-siRNA summed score (-2 to +2)": 0, "mean protection from cisplatin (shift in death) (%)": -6.6, "Outcome": "inactive"}
{"gene": "LOC401581", "PubChem SID": "SID131522946", "two-siRNA summed score (-2 to +2)": 2, "mean protection from cisplatin (shift in death) (%)": 13.6, "Outcome": "active"}
{"gene": "PER3 (period circadian regulator 3)", "PubChem SID": "SID131513481", "two-siRNA summed score (-2 to +2)": 0, "mean protection from cisplatin (shift in death) (%)": 6.6, "Outcome": "inactive"}
{"gene": "VKORC1 (vitamin K epoxide reductase complex subunit 1)", "PubChem SID": "SID131521974", "two-siRNA summed score (-2 to +2)": 1, "mean protection from cisplatin (shift in death) (%)": 15.6, "Outcome": "inactive"}
{"gene": "GPAT4 (glycerol-3-phosphate acyltransferase 4)", "PubChem SID": "SID131521113", "two-siRNA summed score (-2 to +2)": 1, "mean protection from cisplatin (shift in death) (%)": 12.2, "Outcome": "inactive"}
{"gene": "PPIAP55 (peptidylprolyl isomerase A pseudogene 55)", "PubChem SID": "SID131512025", "two-siRNA summed score (-2 to +2)": 0, "mean protection from cisplatin (shift in death) (%)": 5, "Outcome": "inactive"}
{"gene": "DEFA6 (defensin alpha 6)", "PubChem SID": "SID131507144", "two-siRNA summed score (-2 to +2)": 0, "mean protection from cisplatin (shift in death) (%)": -0.5, "Outcome": "inactive"}
{"gene": "PFDN6 (prefoldin subunit 6)", "PubChem SID": "SID131512279", "two-siRNA summed score (-2 to +2)": 0, "mean protection from cisplatin (shift in death) (%)": 5.3, "Outcome": "inactive"}
{"gene": "ZNF700 (zinc finger protein 700)", "PubChem SID": "SID131514372", "two-siRNA summed score (-2 to +2)": 0, "mean protection from cisplatin (shift in death) (%)": 7.7, "Outcome": "inactive"}
{"gene": "ADGRG3 (adhesion G protein-coupled receptor G3)", "PubChem SID": "SID131519394", "two-siRNA summed score (-2 to +2)": 1, "mean protection from cisplatin (shift in death) (%)": 5.3, "Outcome": "inactive"}
{"gene": "LOC440020", "PubChem SID": "SID131513525", "two-siRNA summed score (-2 to +2)": 0, "mean protection from cisplatin (shift in death) (%)": 6.7, "Outcome": "inactive"}
{"gene": "TLX3 (T cell leukemia homeobox 3)", "PubChem SID": "SID131515283", "two-siRNA summed score (-2 to +2)": 0, "mean protection from cisplatin (shift in death) (%)": 8.9, "Outcome": "inactive"}
